# Measured values from PubChem BioAssay AID2685 (National Center for Advancing Translational Sciences (NCATS), 2010).
# The list shows a part of the results. The main result of the screen is listed elsewhere. These columns were measured beside it and carry no call. Compounds called inactive in the main read-out are mostly missing here. Potencies come from curve fits of mixed quality, noted in brackets.
# Assay: qHTS Assay for Lipid Storage Modulators in Drosophila S3 Cells;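 for cell number change: cells counted by Cell Tracker Red CMTPX staining in the red channel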
# Settings: BODIPY lipid droplet fluorescence, 18-24 h; for cell number change: measured here: cell count max response, cells fed with added oleic acid
# Procedure, shortened: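 Drosophila S3 cells loaded with oleic acid (400 uM, as added) and compounds at several concentrations; lipid droplets imaged by 488-nm laser-scanning cytometry, 500–530 nm intensity and object ratio to cell channel. Percent activity normalized to 20 uM Triacsin C.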
# [1] = measured here: lipid fluorescence (Fed channel) AC50, cells fed with added oleic acid
# [2] = measured here: cell number channel AC50, cells fed with added oleic acid
SMILES,cell number change [%],AC50 [1],AC50 [2]
NC(=O)c1ccc(NC(=O)CN2CCN(S(=O)(=O)c3ccc4c(c3)OCCO4)CC2)cc1,-25,"32600 nM [falling, single point]",–
Cc1ccccc1OCC(=O)Nc1cnn(CCCC(=O)O)c1,19,"1460 nM [rising, full curve, poor fit]",–
COc1ccc2oc(=O)c(C(=O)Nc3ccccc3-c3ccccc3)cc2c1,–,"116 nM [rising, full curve, poor fit]",–
COc1cc2nc(CN(C)Cc3ccc(Cl)cc3)[nH]c(=O)c2cc1OC,83.5,"4.61 nM [rising, full curve, poor fit]","23100 nM [rising, single point]"
O=C(OCc1cccc([N+](=O)[O-])c1)c1cccnc1,-32.5,"20600 nM [falling, single point]","32600 nM [falling, single point]"
Cc1cc(C)nc(SCCCNCc2ccc(Br)cc2)n1,-5.67,"29100 nM [falling, single point]",–
O=c1cc(CN2CCN(S(=O)(=O)c3ccc4c(c3)OCCO4)CC2)c2ccc(O)cc2o1,11.5,–,"130 nM [falling, full curve, poor fit]"
Cc1cccc(NC(=O)c2cc(S(=O)(=O)N(C)c3ccc(F)cc3)ccc2Cl)n1,-50.5,"326 nM [falling, full curve, poor fit]","16400 nM [falling, partial curve, poor fit]"
CC(C)C1N(c2ccccc2)C(N)=C(C#N)C1(C#N)C#N (stereo not drawn),84.1,"18400 nM [rising, single point]","18400 nM [rising, single point]"
Cc1cc2cc(CNC(=O)Cc3ccc([N+](=O)[O-])cc3)ccc2[nH]1,86.4,"18400 nM [rising, single point]","29100 nM [rising, single point]"
Cc1nc(N/N=C/c2ccc(Br)cc2)cc(N2CCOCC2)n1,-6.32,"517 nM [falling, single point]",–
COc1ccc2nc3c(cc2c1)c(NC(=O)c1cccs1)nn3CC(C)C,17.9,"461 nM [rising, partial curve]","1030 nM [rising, single point]"
CC(C)CCNC(=O)C(c1ccco1)N(Cc1ccc(F)cc1)C(=O)c1snc(C(N)=O)c1N (stereo not drawn),3.61,"29100 nM [rising, single point]","731 nM [rising, partial curve, poor fit]"
CCOC(=O)C1CN(S(=O)(=O)c2ccc(Cl)cc2)c2cc(S(=O)(=O)CC)ccc2O1 (stereo not drawn),-33.1,–,"6510 nM [falling, single point]"
COCCNC(=S)NCCc1ccc(Cl)cc1Cl,8.61,"411 nM [falling, full curve]","731 nM [falling, full curve]"
c1ccc(COc2nsnc2N2CCOCC2)cc1,–,"651 nM [falling, single point]",–
CC(C)COC(=O)CCn1[nH]c(=O)c2ccccc2c1=O,-18.4,"580 nM [falling, full curve, poor fit]","326 nM [rising, full curve, poor fit]"
N#C/C(=C\c1ccc[nH]1)C(=O)Nc1ccccc1F,8.38,"6510 nM [falling, single point]",–
Cc1cccc(C)c1OCC(=O)NNC(=O)CCNC(=O)c1ccco1,–,"2910 nM [rising, single point]",–
O=C(N/N=C/c1ccco1)c1ccc(NC(=O)C2CCCCC2)cc1,-21.2,–,"517 nM [falling, full curve, poor fit]"

# Part of the list above, limited to AC50 [1] and cell number change [%].
SMILES | AC50 [1] | cell number change [%]
Cc1cc(C)nc(SCCCNCc2ccc(Br)cc2)n1 | 29100 nM [falling, single point] | -5.67
O=c1cc(CN2CCN(S(=O)(=O)c3ccc4c(c3)OCCO4)CC2)c2ccc(O)cc2o1 | – | 11.5
Cc1cccc(NC(=O)c2cc(S(=O)(=O)N(C)c3ccc(F)cc3)ccc2Cl)n1 | 326 nM [falling, full curve, poor fit] | -50.5
CCOC(=O)C1CN(S(=O)(=O)c2ccc(Cl)cc2)c2cc(S(=O)(=O)CC)ccc2O1 (stereo not drawn) | – | -33.1

# (list continues)

SMILES,cell number change [%],AC50 [1],AC50 [2]
Cc1cccc2cc(CN(Cc3nnnn3Cc3ccccc3)C3CCCC3)c(=O)[nH]c12,–,"1160 nM [rising, full curve]",–
CC(=O)Nc1ccc(C(=O)COC(=O)C2CC2C)c(F)c1 (stereo not drawn),26.5,–,–
COC(=O)c1cc(NC(=O)c2ccc(OC)cc2)c(=O)oc1C,2.39,–,–
COc1ccc(NC(=O)CSc2nnc(Cc3cccs3)n2C)cc1,23.7,–,–
CCC1(c2ccc(F)cc2)NC(=O)N(CC(=O)NCc2ccccc2Cl)C1=O (stereo not drawn),19.8,"1840 nM [rising, full curve, poor fit]",–
CN(CC(=O)Nc1cccc2ccccc12)C(=O)c1ccc(F)cc1F,-14.5,"16400 nM [rising, partial curve]",–
CC(=C/c1ccccc1)/C=N/n1c(-c2ccco2)n[nH]c1=S,-36.9,–,"7310 nM [falling, partial curve, poor fit]"
CCN1CCN(c2nc3c(c(=O)[nH]c(=O)n3C)n2Cc2ccccc2)CC1,2.36,"2310 nM [falling, full curve]",–
CCN(C(=O)CSc1nnc(-c2ccco2)n1CC)c1c(N)n(Cc2ccccc2)c(=O)[nH]c1=O,3.35,–,–
CCCCNC(=O)CN1C(=O)NC(Cc2ccccc2)(Cc2ccccc2)C1=O,6.45,–,–
COc1ccc(OCC(=O)Nc2nc3c(s2)CCCC3)cc1,-27.1,–,–
COc1ccc(C2=NOC(Cn3nc(C(=O)NCc4ccc5c(c4)OCO5)cc3-c3ccccc3)C2)cc1 (stereo not drawn),28.5,"580 nM [falling, full curve]",–
O=C(NC1CCCCC1)C(c1ccccc1F)N(Cc1ccco1)C(=O)Cn1nnc2ccccc21 (stereo not drawn),-25.3,"5800 nM [falling, partial curve]",–
CCCn1c(SCC(=O)Nc2sc(C)c(C)c2C(=O)OC)nc2c1c(=O)n(C)c(=O)n2C,4.14,"2060 nM [rising, partial curve, poor fit]",–
Cc1ccc(COc2ccsc2C(=O)NN)cc1,0.13,"6510 nM [rising, partial curve]","6510 nM [rising, partial curve, poor fit]"
CC(NC(=O)c1ccc2c(c1)OCO2)c1ccccc1 (stereo not drawn),2.1,"4.11 nM [rising, partial curve, poor fit]",–
COc1cccc(NC(=O)c2ccc3c(O)c(S(=O)(=O)c4ccccc4)c(=O)[nH]c3c2)c1,-0.989,–,–
COc1ccccc1C(=O)N(Cc1ccccc1)c1ccc(C)cc1,20.8,"1640 nM [rising, partial curve]",–
CCc1cc(C(=O)Cc2nc3ccccc3[nH]2)c(O)cc1O,-6.51,"206 nM [falling, partial curve, poor fit]",–
CC(C)(C)NC(=O)C(OC(=O)Cn1nnc(-c2ccc(F)cc2)n1)c1ccncc1 (stereo not drawn),5.83,–,–

SMILES,cell number change [%],AC50 [1],AC50 [2]
CC(C)(C)c1ccc(-c2cc(-c3ccccc3O)[nH]n2)cc1,4.73,–,–
CN/C(=C/[N+](=O)[O-])NCCSCc1ccc(CN(C)C)o1,-31.9,–,"4110 nM [falling, full curve, poor fit]"
O=C(CN1C(=O)NC2(CCc3ccccc32)C1=O)c1ccc(F)c(F)c1 (stereo not drawn),31.1,–,"3660 nM [rising, full curve, poor fit]"
Cc1cccc(NC(=O)c2cc(S(=O)(=O)N3CCCCC3)c[nH]2)c1C,10.2,"29100 nM [rising, single point]",–
CC1(C)CN2C(=S)N(c3ccccc3)C(c3ccccc3)N2C1 (stereo not drawn),-54,–,"18400 nM [falling, single point]"
Nc1c(SCCC(=O)O)ccc2c1C(=O)c1ccccc1C2=O,-66.7,–,"20600 nM [falling, partial curve, poor fit]"
O=C(NCC1CCCO1)C1CC(=O)N(C2CCCC2)C1 (stereo not drawn),7.24,"23100 nM [falling, partial curve]",–
COc1cc(CN(C(=O)c2cc3ccccc3oc2=O)C2CCS(=O)(=O)C2)cc(OC)c1OC (stereo not drawn),19.4,–,–
O=C(CN1C(=O)C2CCCCC2C1=O)Nc1cc([N+](=O)[O-])ccc1F (stereo not drawn),-16.7,"146 nM [falling, full curve, poor fit]","146 nM [falling, full curve, poor fit]"
Cc1cc(C(=O)N/N=C/c2ccc([N+](=O)[O-])s2)c2ccccc2n1,-1.28,–,"4.61 nM [rising, full curve, poor fit]"
O=C(CSc1ccc(Cl)cc1)Nn1cnnc1,–,"4.61 nM [falling, full curve, poor fit]",–
COCCn1c(C)cc(C(=O)CSc2ccc(NC(C)=O)cc2)c1C,5.09,–,–
Cc1ccc(C(=O)OC(C)C(=O)c2cc(C)c(C)cc2C)o1 (stereo not drawn),17.5,"4.61 nM [rising, full curve, poor fit]",–
COc1ccc(C(=O)N2CCN=C2SC)cc1,-22.3,"116 nM [falling, full curve, poor fit]",–
COc1cc(C(=O)Nc2cccc(NC(=O)c3cccs3)c2)cc(OC)c1OC,-5.61,"29100 nM [falling, single point]",–
COc1cc2c(cc1OC)C1=C(C#N)CN(C3CCCCC3)CN1CC2,-4.05,–,–
Cc1nnc(SCC(=O)Nc2cc(C(N)=O)cc(C(N)=O)c2)n1-c1ccccc1,-5.42,"580 nM [rising, full curve]",–
CCc1c(C)nc2cc(-c3cccc(Br)c3)[nH]n2c1=O,10.3,"20600 nM [falling, single point]",–
O=C(CCC(=O)c1ccc(Cl)cc1)OCc1nc2ccsc2c(=O)[nH]1,-0.659,–,–
CCOc1ccc(NC(=O)CN2CCCC2c2cccs2)cc1S(=O)(=O)N1CCCCC1 (stereo not drawn),17.1,"4.61 nM [rising, full curve, poor fit]",–
